# Literature values in patent US8278315B2, “Radiotherapy method using x-rays” (priority 2002, dated 2012).
# At least one compound was matched to its structure with a doubt left.
# Columns and labels:
# [1] = cited from earlier work
# [2] = cited from earlier work; remark: listed apart in the source
smiles,measurement,setting,value
CS(C)=O.[Cl-].[Cl-].[Cl-].[Cl-].[Na+].[Ru+3].c1c[nH]cn1 [NAMI],antitumor activity,[1],good antitumor activity
same,general cellular toxicity,[2],low general cellular toxicity
